Experimental data taken from article PMC13280575, “The PER2:BRCA1:POU2F1(OCT-1) ternary complex represents a multi-component scaffold model for circadian gene regulation”.

Target: T1, POU2F1 (OCT-1) POU DNA-binding domain, wild type (Homo sapiens) (UniProt P14859)
T1 sequence (looked up, limits assumed): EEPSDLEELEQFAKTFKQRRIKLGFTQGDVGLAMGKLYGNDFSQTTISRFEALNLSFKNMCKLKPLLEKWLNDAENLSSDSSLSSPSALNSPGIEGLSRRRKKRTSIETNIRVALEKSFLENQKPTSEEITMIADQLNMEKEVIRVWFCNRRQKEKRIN
Assay: EMSA
Settings: POU pre-incubated with PER2(683-872), up to 5-fold molar excess, before probe, dose-dependent loss of POU:DNA complex; EMSA: 20 mM HEPES pH 7.9, 2 mM MgCl2, 10% glycerol, 2 mM DTT, 36 ng poly(dI-dC), 20 min room temperature; 5% native gel, 0.5x TBE, 4 C; recombinant protein; label: 5'-32P

GCTATGGCCTATGCATATGAAGCCTTTATT (double strand) [ESR1 promoter POU2F1 element probe (-56 to -42)]
binding result: binds more weakly

The exact form of at least one protein or probe is not confirmed. The comparison behind a weaker result is the experiment's own reference, which may not be listed here. Protein sequences can lack the tags named with them.
